{"sequences": {"note": "Chains of the proteins cited; added tags and fusions are not shown.", "UniProt P70168": "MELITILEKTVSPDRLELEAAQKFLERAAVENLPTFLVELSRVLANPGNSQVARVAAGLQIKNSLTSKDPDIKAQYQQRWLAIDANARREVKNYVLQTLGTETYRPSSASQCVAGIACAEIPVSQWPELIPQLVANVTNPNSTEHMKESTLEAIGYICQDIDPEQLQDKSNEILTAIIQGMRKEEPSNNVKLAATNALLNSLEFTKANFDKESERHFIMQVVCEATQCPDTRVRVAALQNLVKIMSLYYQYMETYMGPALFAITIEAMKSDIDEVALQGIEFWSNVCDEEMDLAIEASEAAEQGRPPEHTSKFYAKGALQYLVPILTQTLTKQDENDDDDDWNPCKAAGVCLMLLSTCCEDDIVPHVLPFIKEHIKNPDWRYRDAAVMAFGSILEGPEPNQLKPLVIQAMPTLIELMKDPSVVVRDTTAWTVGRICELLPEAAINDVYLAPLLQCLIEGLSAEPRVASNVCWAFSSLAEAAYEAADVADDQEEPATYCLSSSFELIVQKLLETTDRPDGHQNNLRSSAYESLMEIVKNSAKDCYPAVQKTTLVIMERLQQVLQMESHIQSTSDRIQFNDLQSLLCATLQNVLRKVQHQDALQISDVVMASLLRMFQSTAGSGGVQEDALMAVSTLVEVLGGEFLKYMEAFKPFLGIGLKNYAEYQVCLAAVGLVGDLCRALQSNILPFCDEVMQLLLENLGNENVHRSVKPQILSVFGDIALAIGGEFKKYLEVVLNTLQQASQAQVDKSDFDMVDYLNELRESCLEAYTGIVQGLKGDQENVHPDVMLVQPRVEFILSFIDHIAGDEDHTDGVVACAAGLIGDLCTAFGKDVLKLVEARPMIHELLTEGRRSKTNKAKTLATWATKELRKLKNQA", "UniProt O15534": "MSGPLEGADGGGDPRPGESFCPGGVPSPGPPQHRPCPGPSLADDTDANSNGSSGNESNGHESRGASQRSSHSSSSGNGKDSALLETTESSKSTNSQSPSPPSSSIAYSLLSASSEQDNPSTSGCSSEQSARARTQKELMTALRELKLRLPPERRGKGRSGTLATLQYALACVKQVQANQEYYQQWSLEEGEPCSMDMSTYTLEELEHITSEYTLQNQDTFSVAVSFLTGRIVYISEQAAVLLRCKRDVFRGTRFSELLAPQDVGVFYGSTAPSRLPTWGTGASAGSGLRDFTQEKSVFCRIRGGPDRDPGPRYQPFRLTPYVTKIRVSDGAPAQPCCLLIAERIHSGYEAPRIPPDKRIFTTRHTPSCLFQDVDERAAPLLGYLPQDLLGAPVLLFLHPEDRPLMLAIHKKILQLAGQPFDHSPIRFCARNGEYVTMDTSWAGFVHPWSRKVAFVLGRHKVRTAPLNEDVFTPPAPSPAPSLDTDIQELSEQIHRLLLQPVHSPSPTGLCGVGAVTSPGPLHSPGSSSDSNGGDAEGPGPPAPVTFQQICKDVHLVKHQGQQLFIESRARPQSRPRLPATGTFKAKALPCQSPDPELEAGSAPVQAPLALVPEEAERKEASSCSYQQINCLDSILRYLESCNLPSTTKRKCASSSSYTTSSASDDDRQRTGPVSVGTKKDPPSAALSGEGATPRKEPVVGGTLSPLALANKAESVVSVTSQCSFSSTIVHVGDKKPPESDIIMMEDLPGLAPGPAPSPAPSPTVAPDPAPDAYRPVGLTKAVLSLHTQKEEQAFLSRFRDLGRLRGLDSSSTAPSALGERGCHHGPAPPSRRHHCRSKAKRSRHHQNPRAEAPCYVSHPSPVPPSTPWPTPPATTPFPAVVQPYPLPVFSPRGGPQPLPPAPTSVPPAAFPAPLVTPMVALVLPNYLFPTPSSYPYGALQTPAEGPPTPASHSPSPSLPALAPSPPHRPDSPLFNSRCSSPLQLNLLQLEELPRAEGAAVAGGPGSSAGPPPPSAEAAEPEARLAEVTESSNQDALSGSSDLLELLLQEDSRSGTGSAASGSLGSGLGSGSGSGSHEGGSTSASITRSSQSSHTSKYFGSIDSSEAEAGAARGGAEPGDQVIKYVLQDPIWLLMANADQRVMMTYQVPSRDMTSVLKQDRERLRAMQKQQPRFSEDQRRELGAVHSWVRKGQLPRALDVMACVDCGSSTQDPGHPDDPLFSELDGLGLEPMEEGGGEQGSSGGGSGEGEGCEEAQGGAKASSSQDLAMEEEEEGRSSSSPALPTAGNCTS", "UniProt O54943": "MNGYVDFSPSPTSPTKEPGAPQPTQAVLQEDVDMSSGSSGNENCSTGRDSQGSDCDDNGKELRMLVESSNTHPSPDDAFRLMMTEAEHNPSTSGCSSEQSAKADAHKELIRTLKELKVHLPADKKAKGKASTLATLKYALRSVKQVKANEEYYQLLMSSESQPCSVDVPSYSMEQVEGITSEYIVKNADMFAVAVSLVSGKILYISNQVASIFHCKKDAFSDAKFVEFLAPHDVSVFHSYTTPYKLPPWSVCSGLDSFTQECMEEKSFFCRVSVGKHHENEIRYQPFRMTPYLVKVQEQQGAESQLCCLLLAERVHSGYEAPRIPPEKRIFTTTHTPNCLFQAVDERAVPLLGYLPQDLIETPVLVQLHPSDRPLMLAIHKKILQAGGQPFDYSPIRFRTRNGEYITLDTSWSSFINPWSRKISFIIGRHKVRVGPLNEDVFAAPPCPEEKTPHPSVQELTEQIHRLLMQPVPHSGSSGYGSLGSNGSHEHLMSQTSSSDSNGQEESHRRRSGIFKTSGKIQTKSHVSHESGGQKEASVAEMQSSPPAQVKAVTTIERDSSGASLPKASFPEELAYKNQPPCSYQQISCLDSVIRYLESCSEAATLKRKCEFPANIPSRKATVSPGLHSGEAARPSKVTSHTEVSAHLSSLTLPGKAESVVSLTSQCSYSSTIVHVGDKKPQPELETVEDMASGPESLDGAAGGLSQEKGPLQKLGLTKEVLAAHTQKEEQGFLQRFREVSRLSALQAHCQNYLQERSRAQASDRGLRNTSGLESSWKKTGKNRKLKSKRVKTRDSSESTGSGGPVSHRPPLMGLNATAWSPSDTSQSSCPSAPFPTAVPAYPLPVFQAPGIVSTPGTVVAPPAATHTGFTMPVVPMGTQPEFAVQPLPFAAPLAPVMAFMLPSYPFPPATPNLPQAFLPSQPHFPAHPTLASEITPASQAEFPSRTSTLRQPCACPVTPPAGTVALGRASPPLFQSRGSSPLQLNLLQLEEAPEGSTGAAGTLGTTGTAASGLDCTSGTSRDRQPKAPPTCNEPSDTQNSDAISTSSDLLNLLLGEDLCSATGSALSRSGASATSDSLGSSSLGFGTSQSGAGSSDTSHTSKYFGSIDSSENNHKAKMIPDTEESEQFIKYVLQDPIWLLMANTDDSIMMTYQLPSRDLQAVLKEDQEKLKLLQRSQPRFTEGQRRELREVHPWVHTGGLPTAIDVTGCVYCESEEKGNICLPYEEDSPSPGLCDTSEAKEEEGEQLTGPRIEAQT", "UniProt Q14974": "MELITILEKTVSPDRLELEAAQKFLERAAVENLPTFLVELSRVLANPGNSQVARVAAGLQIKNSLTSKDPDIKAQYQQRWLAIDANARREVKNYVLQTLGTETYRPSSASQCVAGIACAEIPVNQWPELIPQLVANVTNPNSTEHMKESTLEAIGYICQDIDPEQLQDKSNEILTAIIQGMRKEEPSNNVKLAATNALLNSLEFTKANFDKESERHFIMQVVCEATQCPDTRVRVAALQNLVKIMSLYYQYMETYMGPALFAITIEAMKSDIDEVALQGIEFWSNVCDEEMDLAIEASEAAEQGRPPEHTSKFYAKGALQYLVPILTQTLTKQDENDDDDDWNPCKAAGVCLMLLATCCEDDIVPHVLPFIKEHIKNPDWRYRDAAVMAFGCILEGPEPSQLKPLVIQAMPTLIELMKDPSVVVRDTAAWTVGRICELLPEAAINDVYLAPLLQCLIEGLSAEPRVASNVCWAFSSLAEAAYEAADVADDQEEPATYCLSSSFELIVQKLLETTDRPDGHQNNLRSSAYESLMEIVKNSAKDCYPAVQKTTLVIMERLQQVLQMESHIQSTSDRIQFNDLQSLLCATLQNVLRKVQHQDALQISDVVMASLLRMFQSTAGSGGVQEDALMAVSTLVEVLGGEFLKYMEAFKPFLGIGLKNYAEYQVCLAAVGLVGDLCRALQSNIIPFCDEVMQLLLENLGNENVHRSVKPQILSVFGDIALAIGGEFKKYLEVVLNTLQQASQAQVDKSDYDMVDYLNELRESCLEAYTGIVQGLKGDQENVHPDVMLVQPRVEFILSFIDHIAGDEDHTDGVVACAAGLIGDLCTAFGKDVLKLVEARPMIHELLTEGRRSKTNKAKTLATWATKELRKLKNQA"}, "source": "paper PMC4597257", "key": {"[1]": {"molecular_target": "T1, Venus C-terminal (VC)-tagged CRY1 (UniProt Q16526)", "T1 sequence": "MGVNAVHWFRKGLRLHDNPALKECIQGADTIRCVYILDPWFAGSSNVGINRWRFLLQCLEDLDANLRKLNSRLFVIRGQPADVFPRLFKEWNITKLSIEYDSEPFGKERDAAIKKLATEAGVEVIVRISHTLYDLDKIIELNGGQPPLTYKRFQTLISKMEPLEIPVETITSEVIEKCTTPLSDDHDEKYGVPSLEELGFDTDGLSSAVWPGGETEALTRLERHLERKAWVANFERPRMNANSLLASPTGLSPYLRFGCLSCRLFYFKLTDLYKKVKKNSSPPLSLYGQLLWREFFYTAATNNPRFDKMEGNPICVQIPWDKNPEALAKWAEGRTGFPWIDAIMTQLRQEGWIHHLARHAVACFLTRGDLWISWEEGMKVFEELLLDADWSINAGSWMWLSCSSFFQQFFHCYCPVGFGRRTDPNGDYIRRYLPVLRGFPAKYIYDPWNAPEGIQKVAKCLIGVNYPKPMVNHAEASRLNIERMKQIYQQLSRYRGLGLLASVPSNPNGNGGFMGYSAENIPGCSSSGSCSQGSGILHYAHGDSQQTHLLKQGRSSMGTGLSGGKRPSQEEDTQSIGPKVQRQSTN", "assay": "split reporter; BiFC of VN- and VC-tagged proteins in U2 OS cells, fixed 24 hr after transfection, fluorescence microscopy; with control or KPNB1 siRNA"}, "[2]": {"molecular_target": "T2, Venus C-terminal (VC)-tagged CRY2 (UniProt Q49AN0)", "T2 sequence": "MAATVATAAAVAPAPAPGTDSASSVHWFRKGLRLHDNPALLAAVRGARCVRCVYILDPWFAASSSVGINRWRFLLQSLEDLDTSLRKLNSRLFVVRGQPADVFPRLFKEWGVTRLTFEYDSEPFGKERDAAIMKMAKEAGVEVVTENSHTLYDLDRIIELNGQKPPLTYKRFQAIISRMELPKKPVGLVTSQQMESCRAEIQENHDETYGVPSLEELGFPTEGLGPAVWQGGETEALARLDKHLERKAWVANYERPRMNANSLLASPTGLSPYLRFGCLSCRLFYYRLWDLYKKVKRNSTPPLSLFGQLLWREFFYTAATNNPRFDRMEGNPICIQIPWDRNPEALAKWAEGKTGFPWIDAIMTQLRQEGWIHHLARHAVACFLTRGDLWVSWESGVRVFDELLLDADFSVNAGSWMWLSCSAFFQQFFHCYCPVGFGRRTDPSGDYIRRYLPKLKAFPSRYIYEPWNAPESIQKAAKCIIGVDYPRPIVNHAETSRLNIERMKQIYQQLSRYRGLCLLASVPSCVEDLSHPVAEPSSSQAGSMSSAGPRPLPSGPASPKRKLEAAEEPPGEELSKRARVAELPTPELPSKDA", "assay": "split reporter; BiFC of VN- and VC-tagged proteins in U2 OS cells, fixed 24 hr after transfection, fluorescence microscopy; with control or KPNB1 siRNA"}, "[3]": {"molecular_target": "endogenous KPNB1 (mouse liver) (mouse (endogenous in liver)) (UniProt P70168)", "assay": "co-IP; mouse liver homogenised in RIPA buffer 1 (50 mM Tris-HCl pH 8.0, 450 mM NaCl, 1% Triton X-100), diluted with 2 vol of the buffer without NaCl; IP with anti-KPNB1 or control IgG; blot with anti-PER2"}, "[4]": {"molecular_target": "Venus-tagged PER1 (UniProt O15534)", "assay": "co-IP; U2 OS cells transfected with Venus-tagged protein, lysed in RIPA buffer (50 mM HEPES pH 7.4, 150 mM NaCl, 1% NP-40, 0.5% sodium deoxycholate) 48 hr after transfection; anti-GFP on protein-G magnetic beads, 4°C overnight; blot with anti-KPNB1"}, "[5]": {"molecular_target": "T3, Venus-tagged PER2 (UniProt O15055)", "T3 sequence": "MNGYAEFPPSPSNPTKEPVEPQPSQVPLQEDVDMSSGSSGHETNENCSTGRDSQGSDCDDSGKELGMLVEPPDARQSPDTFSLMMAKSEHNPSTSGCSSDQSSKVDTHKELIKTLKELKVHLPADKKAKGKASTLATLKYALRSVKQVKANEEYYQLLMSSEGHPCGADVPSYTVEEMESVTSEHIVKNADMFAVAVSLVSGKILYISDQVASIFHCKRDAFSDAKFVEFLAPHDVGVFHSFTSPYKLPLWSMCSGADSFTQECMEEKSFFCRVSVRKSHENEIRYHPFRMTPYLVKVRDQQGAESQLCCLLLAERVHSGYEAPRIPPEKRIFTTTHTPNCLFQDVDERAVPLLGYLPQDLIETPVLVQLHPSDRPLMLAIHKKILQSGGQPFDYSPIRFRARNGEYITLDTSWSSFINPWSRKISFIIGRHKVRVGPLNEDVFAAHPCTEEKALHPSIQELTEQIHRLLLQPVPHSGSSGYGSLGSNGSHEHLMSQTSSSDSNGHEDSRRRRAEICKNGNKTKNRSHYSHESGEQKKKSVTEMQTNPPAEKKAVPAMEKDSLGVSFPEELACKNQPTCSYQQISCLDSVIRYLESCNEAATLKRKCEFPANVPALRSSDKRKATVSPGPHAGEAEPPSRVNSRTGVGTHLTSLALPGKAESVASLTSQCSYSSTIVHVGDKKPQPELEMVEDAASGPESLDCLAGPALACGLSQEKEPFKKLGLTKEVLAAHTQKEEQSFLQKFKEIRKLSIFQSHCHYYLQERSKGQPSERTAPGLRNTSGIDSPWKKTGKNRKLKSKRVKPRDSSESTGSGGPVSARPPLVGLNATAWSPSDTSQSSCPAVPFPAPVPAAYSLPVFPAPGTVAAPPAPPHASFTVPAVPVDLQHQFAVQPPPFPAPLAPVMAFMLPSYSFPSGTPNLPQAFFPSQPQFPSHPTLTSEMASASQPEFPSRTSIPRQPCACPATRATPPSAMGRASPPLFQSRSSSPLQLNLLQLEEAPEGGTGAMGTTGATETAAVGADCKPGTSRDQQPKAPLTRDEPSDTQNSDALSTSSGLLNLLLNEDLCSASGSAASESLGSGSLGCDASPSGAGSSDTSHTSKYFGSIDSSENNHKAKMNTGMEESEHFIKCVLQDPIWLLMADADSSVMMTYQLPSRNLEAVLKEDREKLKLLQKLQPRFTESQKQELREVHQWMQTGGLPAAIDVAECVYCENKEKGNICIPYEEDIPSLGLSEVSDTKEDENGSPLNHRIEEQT", "assay": "co-IP; U2 OS cells transfected with Venus-tagged protein, lysed in RIPA buffer (50 mM HEPES pH 7.4, 150 mM NaCl, 1% NP-40, 0.5% sodium deoxycholate) 48 hr after transfection; anti-GFP on protein-G magnetic beads, 4°C overnight; blot with anti-KPNB1"}}, "note": "These are yes or no findings as the source states them, for the method shown. Binding seen in cells or lysates may run through a third protein. Some entries that bind do so weakly or less than the wild type. For some assays here: Tags and fused reporters may be left off the sequences shown.", "data": [{"substance": "Venus N terminal (VN)-tagged PER1 (from UniProt O15534 1-1290)", "values": [{"measurement": "binding", "setting": "[1]", "value": "binds"}, {"measurement": "binding", "setting": "[2]", "value": "binds"}]}, {"substance": "endogenous PER2 (mouse liver) (from UniProt O54943 1-1257)", "values": [{"measurement": "binding", "setting": "[3]", "value": "binds"}]}, {"substance": "KPNB1 (from UniProt Q14974 1-876)", "values": [{"measurement": "binding", "setting": "[4]", "value": "binds"}, {"measurement": "binding", "setting": "[5]", "value": "binds"}]}]}
